From PMC7031697, “Mechanism of Activation of AMPK by Cordycepin” (Cell Chemical Biology, 2020) come the findings set out here.

Structures are written as SMILES.

The data set relates to HepG2 cells. In words: Cellular content of adenine and cordycepin nucleotides by LC-MS. Particulars: 100 μM cordycepin, time course. Type of data set: cell-based, human. On the procedure: After treatment, cells for nucleotide analysis were lysed in 70% perchloric acid and the acid extracted as described previously ([Hawley et al., 2010]). The levels of AMP, ADP, ATP, CoMP, CoDP and CoTP were measured using a TSQ Quantiva (with an ion Max NG source) interfaced with an Ultimate 3000 Liquid Chromatography system (ThermoScientific). Separation of all compounds was achieved using a porous graphitic carbon column (HyperCarb 30x1 mm ID […]; Part No: C-35003-031030, Thermo-Scientific) as described previously ([Ross et al., 2017]) with some modifications. Mobile phase buffer A consisted of 0.3% (v/v) formic acid adjusted to pH 9 with ammonia prior to a 1:10 dilution. Mobile phase buffer B was 80% (v/v) acetonitrile. The column was maintained at a controlled temperature of 40°C and equilibrated with 10% buffer B for 5 min at a constant flow rate of 0.05 mL/min. […] Levels of ATP, ADP and AMP were measured using multiple reactions monitoring mode (MRM) with transitions described previously ([Ross et al., 2017]). For CoMP, CoDP and CoTP, optimised collision energies and radio frequencies were determined by infusing the pure compounds. […]

With `Nc1ncnc2c1ncn2[C@@H]1O[C@H](CO)C[C@H]1O` [cordycepin, 3′-deoxyadenosine], the “time of maximum of cellular cordycepin nucleotides” value lay within 1 to 2 h and the “time of peak decrease in cellular adenine nucleotides” value is on record as 2 h.
